# Data from PubChem BioAssay AID1347075 (National Center for Advancing Translational Sciences (NCATS), 2019).
# About 5,500 (1.4%) of roughly 400,000 compounds were called active. Inconclusive means that the source gave no clear call. Such entries were picked first, then a sample of the others. Calls follow the shape of the dose curve; as a rule, active = well fitted cell-killing curve with a large enough effect; inconclusive = small, poorly fitted or top-dose-only effect, or effect the other way; inactive = flat fitted curve, though single readings scatter. Potencies beside an inconclusive call are fits to weak or partial responses and may not hold up.
# Test: qHTS assay for MDR1-selective chemotherapeutics: Primary screen using the parental adenocarcinoma cell KB-3-1; also: nearly all actives have a fitted effect of over 60% in size
# Details: KB-3-1 viability, CellTiter-Glo ATP luminescence, 72 h; activity change, negative = cytotoxic: at 46.1 µM (top of the series)
# Outline: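 Using CellTiter-Glo luminescence, growth of non-resistant KB-3-1 adenocarcinoma cells is assessed 72 h after pin-tool compound addition at 37 °C. Normalized responses across the concentration series yield fitted curves.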
# % is scaled to controls: 0 for no effect and ±100 for the full control effect; potency is read from the fitted curve at half-maximal effect.
Structure (SMILES),Potency,"activity change, negative = cytotoxic"
Cc1c(C(=O)N2CCN(S(=O)(=O)c3cc(F)ccc3F)CC2)oc2ccccc12,"inconclusive: 29.1 µM [cytotoxic, partial curve, poor fit]",
O=C(O)Cc1c(O)ccc2ccccc12,inactive,
CCN1C(=O)[C@H]2[C@@H](c3ccc(-c4ccc(F)cc4)c(OC)c3)N[C@@](Cc3ccccc3)(C(=O)OC)[C@H]2C1=O,"inconclusive: 20.6 µM [cytotoxic, single point]",
C/C(=N\NC(=S)Nc1ccccc1C)c1cc2ccccc2o1,"inconclusive: 20.6 µM [cytotoxic, single point]",
COc1ccc(Cl)cc1C(=O)NC(=S)Nc1ccccc1N1CCOCC1,"inconclusive: 18.4 µM [cytotoxic, partial curve, poor fit]",
CC(C)OC(=O)Nc1ccc2c(c1)N(C(=O)N1CCN(C)CC1)c1ccccc1CC2,"inconclusive: 23.1 µM [cytotoxic, single point]",
O=C(NCc1ccccc1)C(c1ccco1)N(C(=O)c1csnn1)c1ccccc1 (configuration not stated),inactive,
CCOC1OC(=O)C(Cl)=C1Nc1ccc(C)cc1C (configuration not stated),"inconclusive: 32.6 µM [cytotoxic, single point]",
O=C(Nc1nnc(S(=O)(=O)N2CCCC2)s1)c1ccccc1F,"inconclusive: 4.11 µM [cytotoxic, full curve, poor fit]",
CCN(C(=O)c1nn(-c2ccc(C)cc2)c(=O)c2c1c1ccccc1n2C)c1ccc(F)cc1,inactive,
Cc1cccc(NCC(=O)N/N=C\c2ccc[nH]2)c1,inactive,
O=C1c2ccccc2NC(c2ccc(-c3ccc(Br)cc3)o2)N1O (configuration not stated),"inconclusive: 14.6 µM [cytotoxic, single point]",
O=C(NCC(F)(F)F)c1ccc(S(=O)(=O)NCCc2ccc3c(c2)OCCO3)cc1,"inconclusive: 20.6 µM [cytotoxic, single point]",
CCN(CC)c1ccc(S(=O)(=O)N2CCCCC2)cc1NC(=O)CSCc1c(C)noc1C,active: 23.1 µM,
CCOc1ccc(C(C)=O)cc1COC(=O)c1ccccc1C(=O)N(C)Cc1ccccc1,inactive,
CC(=O)N1c2c(cc(Br)cc2S(=O)(=O)N2CCN(c3ccccc3F)CC2)CC1C (configuration not stated),inactive,
CC(C)(CN1CCN(C(c2ccccc2)c2ccccc2)CC1)NS(=O)(=O)c1ccccc1,"inconclusive: 18.4 µM [cytotoxic, single point]",
COc1ccc(N=Nc2nc(-c3ccccc3)c(-c3ccccc3)[nH]2)cc1,"inconclusive: 29.1 µM [cytotoxic, single point]",
COc1ccc(OCCSc2nnc(Cc3cccc4ccccc34)n2N)cc1,"inconclusive: 29.1 µM [cytotoxic, single point]",
O=C(NCCCCc1ccccc1)Nc1cccc(F)c1,"inconclusive: 18.4 µM [cytotoxic, single point]",
Cc1onc(-c2ccccc2)c1C(=O)Nc1ccc(N2CCOCC2)cc1,"inconclusive: 14.6 µM [rising, single point]",

Structure (SMILES),Potency,"activity change, negative = cytotoxic"
CCOc1ccc(-c2nnc(-c3ccco3)o2)cc1OCC,"inconclusive: 7.31 µM [rising, partial curve, poor fit]",
O=C(CCC(=O)NNC(=O)Cc1ccccc1)NCc1ccccc1,"inconclusive: 29.1 µM [cytotoxic, single point]",
COc1ccc(CN2C[C@@H](CO)O[C@@H](n3cnc4c(NCCN(C)C)ncnc43)C2)cc1,inactive,
COC(=O)c1c(C)nn(-c2ccc(F)c(Cl)c2)c1-c1cc(C)on1,"inconclusive: 13 µM [cytotoxic, partial curve, poor fit]",
Cc1nc2ccn(Cc3ccccc3)c(=O)c2cc1C(=O)NCc1ccccc1F,"inconclusive: 0.461 µM [cytotoxic, partial curve, poor fit]",
COc1cccc(NC(=O)CN(C)C(=O)c2ccc3ccccc3c2)c1,inactive,
CCN(CC)c1ccc(/C=C2\C=Cc3ccccc32)cc1,"inconclusive: 5.8 µM [rising, partial curve]",
COc1ccc(/C=C2\CCc3ccccc3C2=O)c(OC)c1OC,,inconclusive: -12.3%
CC(C)Oc1ccc(CNCCC2(C(C)C)CCOC(C)(C)C2)cc1 (configuration not stated),"inconclusive: 18.4 µM [cytotoxic, single point]",
Cc1nc2c(C)cccn2c1C(=O)c1ccccc1,"inconclusive: 29.1 µM [cytotoxic, partial curve, poor fit]",
O=c1cc(-c2ccc(OCc3ccccc3)cc2)oc2cc(OCc3ccccc3)cc(OCc3ccccc3)c12,inactive,
CCOC(=O)c1nn(C23CC4CC(CC(C4)C2)C3)c2c1C(=O)N(c1ccc(C)cc1)C2=O,inactive,
COCCCNc1nc(N)c([N+](=O)[O-])c(Nc2ccccc2OC)n1,"inconclusive: 18.4 µM [rising, partial curve, poor fit]",
Cc1cc(C)cc(NC(=O)N2CCCN(c3c(Cl)cncc3Cl)CC2)c1,"inconclusive: 29.1 µM [rising, single point]",
CCOC(=O)Cc1csc(/N=C/c2c(O)n(-c3ccc(C)c(C)c3)c(=O)c3ccccc23)n1,"inconclusive: 9.2 µM [cytotoxic, partial curve, poor fit]",
Cc1cc(N2CCN(C)CC2)ccc1NC(=O)c1c2c(nc3ccccc13)CCN(Cc1ccccc1)C2,inactive,
O=C(c1cc2c(ccc3ccccc32)o1)N1CCN(c2ncc(C(F)(F)F)cc2Cl)CC1,"inconclusive: 25.1 µM [cytotoxic, single point]",
CCc1nnc(NC(=O)CSc2nccn2-c2cccc(C)c2C)s1,"inconclusive: 20.6 µM [cytotoxic, single point]",
CC(C)C[C@H]1CN([C@@H](CC(C)C)CN2CCCC2CN2C(=S)NC[C@@H]2Cc2ccccc2)C(=S)N1CCc1ccccc1 (some centres not stated),"inconclusive: 25.9 µM [cytotoxic, partial curve, poor fit]",
CCOc1ccc(NC(=O)Cn2c(=O)n(Cc3ccc(C(=O)NCc4ccc(C)cc4)cc3)c(=O)c3ccccc32)cc1,inactive,
Cn1c2nc3ccccc3c-2nc2ccccc21,"inconclusive: 29.1 µM [cytotoxic, single point]",

# For reference, some entries already given:
Structure (SMILES),Potency,"activity change, negative = cytotoxic"
CCN(C(=O)c1nn(-c2ccc(C)cc2)c(=O)c2c1c1ccccc1n2C)c1ccc(F)cc1,inactive,
Cc1cccc(NCC(=O)N/N=C\c2ccc[nH]2)c1,inactive,
O=C1c2ccccc2NC(c2ccc(-c3ccc(Br)cc3)o2)N1O (configuration not stated),"inconclusive: 14.6 µM [cytotoxic, single point]",
O=C(NCC(F)(F)F)c1ccc(S(=O)(=O)NCCc2ccc3c(c2)OCCO3)cc1,"inconclusive: 20.6 µM [cytotoxic, single point]",
CCN(CC)c1ccc(S(=O)(=O)N2CCCCC2)cc1NC(=O)CSCc1c(C)noc1C,active: 23.1 µM,
CCOc1ccc(C(C)=O)cc1COC(=O)c1ccccc1C(=O)N(C)Cc1ccccc1,inactive,
CC(=O)N1c2c(cc(Br)cc2S(=O)(=O)N2CCN(c3ccccc3F)CC2)CC1C (configuration not stated),inactive,
CC(C)(CN1CCN(C(c2ccccc2)c2ccccc2)CC1)NS(=O)(=O)c1ccccc1,"inconclusive: 18.4 µM [cytotoxic, single point]",
COc1ccc(N=Nc2nc(-c3ccccc3)c(-c3ccccc3)[nH]2)cc1,"inconclusive: 29.1 µM [cytotoxic, single point]",
COc1ccc(OCCSc2nnc(Cc3cccc4ccccc34)n2N)cc1,"inconclusive: 29.1 µM [cytotoxic, single point]",
O=C(NCCCCc1ccccc1)Nc1cccc(F)c1,"inconclusive: 18.4 µM [cytotoxic, single point]",
